Reference: PubChem BioAssay AID588590 (National Center for Advancing Translational Sciences (NCATS), 2011)
Among all 390,000 compounds or so, about 4,000 (1%) were called active. The inconclusive results got no clear call from the source; some entries with a clear call stand among them for comparison. The call rests on the fitted dose curve; in most records, active means well fitted inhibition curve with a large enough effect; inconclusive means small, poorly fitted or top-dose-only effect, or another doubt; inactive means no such curve, though single readings can be large or run the other way. Potencies beside an inconclusive call are fits to weak or partial responses and may not hold up.

By UniProt entry, the sequences of proteins in these tests, tags left out. Where a name states a change or a piece, a line headed by the entry shows the natural chain unless it says otherwise.
UniProt Q9UNA4: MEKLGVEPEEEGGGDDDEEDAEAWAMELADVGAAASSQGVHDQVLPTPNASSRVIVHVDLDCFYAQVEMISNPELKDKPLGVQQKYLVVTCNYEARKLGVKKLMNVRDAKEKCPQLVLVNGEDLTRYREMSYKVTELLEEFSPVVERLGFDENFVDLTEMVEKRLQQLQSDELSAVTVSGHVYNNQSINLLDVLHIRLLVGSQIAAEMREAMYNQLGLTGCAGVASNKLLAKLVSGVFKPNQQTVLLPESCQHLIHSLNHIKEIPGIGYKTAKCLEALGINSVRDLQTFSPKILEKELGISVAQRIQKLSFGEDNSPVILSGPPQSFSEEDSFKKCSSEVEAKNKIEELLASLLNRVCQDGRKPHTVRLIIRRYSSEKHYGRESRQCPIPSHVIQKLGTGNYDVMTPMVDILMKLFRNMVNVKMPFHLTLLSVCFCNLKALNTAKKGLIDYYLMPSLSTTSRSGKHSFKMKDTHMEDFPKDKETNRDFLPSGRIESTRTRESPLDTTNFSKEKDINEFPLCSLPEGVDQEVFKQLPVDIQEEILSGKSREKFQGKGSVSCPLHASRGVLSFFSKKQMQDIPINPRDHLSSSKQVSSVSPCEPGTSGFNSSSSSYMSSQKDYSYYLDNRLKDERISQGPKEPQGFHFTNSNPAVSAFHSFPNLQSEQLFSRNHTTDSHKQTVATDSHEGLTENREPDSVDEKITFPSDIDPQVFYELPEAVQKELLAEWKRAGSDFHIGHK

What follows are molecules tested against DNA polymerase iota (Homo sapiens) (UniProt Q9UNA4) (assay: qHTS for Inhibitors of Polymerase Iota). Conditions: Pol iota fluorescent replication assay, 10 min; series mostly up to 115 µM; activity, negative = inhibition: at the top concentration.
How it was run: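 Fluorescent replication assay read twice, at 0 min and 10 min after adding 50 nM (final) substrate. Enzyme (10 nM) and compounds were first incubated 15 min at room temperature; enzyme-free buffer wells were negative controls.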
Potency means the concentration at half of the fitted maximal effect.

Potency, active:
COc1cccc(C(=O)c2cn(CC(=O)NCc3ccco3)c3nc(C)ccc3c2=O)c1 22.4 µM
N/C(=N\OS(=O)(=O)c1ccccc1)c1ccncc1 20 µM
O=C1CCCN1C(=O)CSc1ncnc2sccc12 44.7 µM
CC(=O)N1CCc2cc(Br)cc(S(=O)(=O)N3CCC(C(=O)Nc4ccc(C(C)C)cc4)CC3)c21 35.5 µM
Nc1c(N2CCOCC2)cc(Cl)c2nonc12 3.55 µM
O=C(O)c1cc(N(Cc2ccccc2O)Cc2ccccc2O)ccc1O 14.1 µM

Potency, inactive:
COc1ccc(NC(=O)c2ccco2)cc1NC(=O)c1ccc(C#N)cc1F

Potency, inconclusive:
Cc1ccccc1-c1nc(C(=O)NCC2CCCO2)cc2c1[nH]c1ccccc12 (configuration not stated) 12.6 µM [inhibitor, partial curve, poor fit]
CC(C)c1ccc(CNc2nc(-c3ccco3)nn2S(=O)(=O)c2ccc(F)cc2)cc1 89.1 µM [inhibitor, single point]
O=C(COC(=O)c1ccc(F)cc1F)Nc1ncccn1 12.6 µM [inhibitor, full curve, poor fit]
CC1CCN(C(=O)c2cc3nc(-c4ccccc4)cc(-c4ccccc4)n3n2)CC1 35.5 µM [inhibitor, partial curve, poor fit]
CCOc1ccc(NC(=O)c2cnccn2)cc1 89.1 µM [inhibitor, partial curve, poor fit]
C=CCSc1nnc(CSc2nc3sc4c(c3c(=O)[nH]2)CCCC4)n1-c1ccccc1 25.1 µM [inhibitor, single point]
CC(C)CCOc1ccc(Cl)cc1CN1CCOCC1 2.51 µM [inhibitor, partial curve, poor fit]
Cc1cc(NC(=O)c2cccc(S(=O)(=O)N3CCCCCC3)c2)n(-c2ccccn2)n1 1.78 µM [inhibitor, full curve, poor fit]
O=c1cc(O)c2c(=O)n(Cc3ccccc3)c3ccccc3c2o1 35.5 µM [inhibitor, single point]
COc1cc(S(=O)(=O)N2CCCCCC2)ccc1Cl 39.8 µM [inhibitor, single point]
Cn1cc(Br)c(C(=O)NNC(=O)Nc2ccccc2C(F)(F)F)n1 39.8 µM [inhibitor, single point]
CCCCNc1oc(-c2ccc(OC)cc2)nc1S(=O)(=O)c1ccccc1 39.8 µM [inhibitor, single point]
CC(C)(C)c1nn(-c2ccccc2)c2[nH]c(=O)c(CNCc3ccco3)cc12 28.2 µM [inhibitor, single point]
CC(C)(C)OC(=O)N1CCC(c2c(C(=O)NCCN3CCOCC3)cnn2-c2cccc(Cl)c2)CC1 89.1 µM [inhibitor, single point]
CCN(CC)CCn1c(=N)n(CC(=O)c2ccc(Br)s2)c2ccccc21 89.1 µM [inhibitor, single point]
CCn1c(C)nc2cc(C(=O)N/N=C/c3ccc(O)c(O)c3O)ccc21 1 µM [inhibitor, full curve, poor fit]
CCOC(=O)c1cc(S(=O)(=O)Nc2ccc(OC)cc2OC)cn1C 17.8 µM [inhibitor, full curve, poor fit]
COc1ccc(C(=O)NCc2nnc(SCC(=O)NCc3ccco3)o2)cc1 31.6 µM [inhibitor, full curve]
O=C(Cn1c(=O)c(CNc2ccccc2)cc2cc3c(cc21)OCCO3)Nc1ccccc1Cl 70.8 µM [inhibitor, partial curve]
N#Cc1c(N2CCN(C(=O)c3ccco3)CC2)nc(-c2ccccc2)c2c1CCCC2 14.1 µM [inhibitor, full curve, poor fit]
COC(=O)N1C(=O)[C@](c2ccc(OC)cc2)(C(C)C)N1C(=O)OC 31.6 µM [inhibitor, single point]
Cc1ccc(SSc2cc(C)ccc2N)c(N)c1 12.6 µM [inhibitor, partial curve, poor fit]
COc1ccccc1-c1cc(C(=O)N2CCN(c3ccc(F)cc3)CC2)no1 63.1 µM [inhibitor, partial curve, poor fit]
CCCNC(=O)c1cnn(-c2ccc(C)c(C)c2)c1C1CCN(C(=O)OC(C)(C)C)CC1 89.1 µM [inhibitor, single point]
CCC(=O)c1cn(CC(=O)OC)c2ccccc12 4.47 µM [inhibitor, full curve, poor fit]
O=C(NCc1ccco1)Nc1cccs1 6.31 µM [inhibitor, partial curve, poor fit]
COc1cc2c(cc1NC(=O)c1ccncc1)oc1ccccc12 5.01 µM [inhibitor, partial curve, poor fit]
CN(C)C=NC1=NN(c2cccc(C(F)(F)F)c2)CC1 0.794 µM [inhibitor, partial curve, poor fit]
Cn1nnnc1Sc1ncnc2scc(-c3ccccc3)c12 28.2 µM [inhibitor, partial curve, poor fit]
Cc1ccc(NC(=O)/C=C/c2ccco2)cc1F 100 µM [inhibitor, single point]
O=C(Cn1nnc(N2CCCCC2)n1)c1ccc(Cl)c(Cl)c1 44.7 µM [inhibitor, partial curve, poor fit]
Cc1cc(-c2ccc(S(=O)(=O)Nc3ccc(C#N)cc3)s2)on1 79.4 µM [inhibitor, partial curve, poor fit]
O=C(O)c1ccc(N/N=C/c2cn(Cc3ccc(F)cc3)c3ccccc23)cc1 6.31 µM [inhibitor, full curve, poor fit]
Cc1nnc(NC(=O)C2COc3ccccc3O2)s1 (configuration not stated) 89.1 µM [inhibitor, single point]
CC(C)CC1=NN2C(=N)/C(=C\c3coc4ccccc4c3=O)C(=O)N=C2S1 14.1 µM [inhibitor, full curve, poor fit]
Cc1oc(-c2ccccc2F)nc1CN1CCC(C(=O)NCCc2ccccc2)CC1 100 µM [inhibitor, single point]
CCC1Sc2ccc(S(=O)(=O)N3CCN(c4ccccc4)CC3)cc2NC1=O (configuration not stated) 79.4 µM [inhibitor, single point]
CC(=O)N1CCN(c2ccc(NCc3ccc(Br)o3)cc2)CC1 79.4 µM [inhibitor, single point]
O=c1c2ccccc2sc2ccc(C#CC3(O)CCCCC3)cc12 8.91 µM [inhibitor, full curve, poor fit]
COc1ccc(/C=C2\SC(=S)N(CCC(=O)Nc3cccc(C(=O)O)c3)C2=O)cc1OC 79.4 µM [inhibitor, single point]
COc1ccc(C)cc1NC(=O)Nc1cccc(OCc2cc(=O)n3ccc(C)cc3n2)c1 25.1 µM [inhibitor, single point]
COc1ccc(NC(=O)CCc2nnc3ccc(NCc4ccco4)nn23)cc1OC 11.2 µM [inhibitor, partial curve, poor fit]
COc1ccc(CN(Cc2ccccc2)C(=O)C2CC2)cc1COc1ccc(NC(C)=O)cc1 35.5 µM [inhibitor, partial curve, poor fit]

Ordered by SMILES length (high to low): 12 of the compounds above
Potency, inconclusive:
COc1ccc(/C=C2\SC(=S)N(CCC(=O)Nc3cccc(C(=O)O)c3)C2=O)cc1OC 79.4 µM [inhibitor, single point]
Cc1cc(NC(=O)c2cccc(S(=O)(=O)N3CCCCCC3)c2)n(-c2ccccn2)n1 1.78 µM [inhibitor, full curve, poor fit]
COc1ccc(CN(Cc2ccccc2)C(=O)C2CC2)cc1COc1ccc(NC(C)=O)cc1 35.5 µM [inhibitor, partial curve, poor fit]
N#Cc1c(N2CCN(C(=O)c3ccco3)CC2)nc(-c2ccccc2)c2c1CCCC2 14.1 µM [inhibitor, full curve, poor fit]
CC(C)(C)c1nn(-c2ccccc2)c2[nH]c(=O)c(CNCc3ccco3)cc12 28.2 µM [inhibitor, single point]
CCC1Sc2ccc(S(=O)(=O)N3CCN(c4ccccc4)CC3)cc2NC1=O (configuration not stated) 79.4 µM [inhibitor, single point]
COc1ccc(NC(=O)CCc2nnc3ccc(NCc4ccco4)nn23)cc1OC 11.2 µM [inhibitor, partial curve, poor fit]
O=c1cc(O)c2c(=O)n(Cc3ccccc3)c3ccccc3c2o1 35.5 µM [inhibitor, single point]
CC(=O)N1CCN(c2ccc(NCc3ccc(Br)o3)cc2)CC1 79.4 µM [inhibitor, single point]
Cc1ccc(NC(=O)/C=C/c2ccco2)cc1F 100 µM [inhibitor, single point]
CC(C)CCOc1ccc(Cl)cc1CN1CCOCC1 2.51 µM [inhibitor, partial curve, poor fit]
Cc1ccc(SSc2cc(C)ccc2N)c(N)c1 12.6 µM [inhibitor, partial curve, poor fit]

Next part:

activity, negative = inhibition, inactive:
Cc1c(C#N)c(O)[nH]c(=O)c1N=Nc1ccc(Cl)c(C(=O)O)c1 4.6%
COc1ccc(OC)c(C2CC(=O)Nc3c2c(=O)[nH]c2nc4ccccc4n32)c1 (configuration not stated) -17.5%
O=C(NCc1cccs1)c1ccc(N2CCCC2=O)cc1 9.8%
Cc1ccc(N2C(=O)N(CC(=O)N3c4ccccc4CC3C)C(=O)C2C)cc1 (configuration not stated) 32.6%
CCOC(=O)C1=C(CS(=O)(=O)c2ccc(F)cc2)NC(=O)NC1c1cc(OC)c(O)c(OC)c1 (configuration not stated) 10.5%
COc1ccc(/C=N/Nc2cc(C)nc(-n3nc(C)cc3C)n2)c(OC)c1 -3.16%
O=C(N/N=C/c1ccncc1)c1ccccn1 6.52%
COc1ccc(C(=O)Nc2ccc(OC)c([N+](=O)[O-])c2)cc1Br -47.7%
CCOc1cc2c(cc1OCC)C(CC(=O)O)N(C(=O)Nc1ccc(Br)c(C)c1)CC2 (configuration not stated) -2.94%
COc1ccc(-c2c(C(F)(F)F)[nH]n3c(=O)cc(-c4ccccc4)nc23)cc1 -11.7%
CC(C(=O)c1ccccc1)[n+]1cccc(Cl)c1 (configuration not stated) 8.43%
Cc1cccc(N2CCN(S(=O)(=O)c3cc(C(=O)Nc4ccc(Oc5ccccc5)cc4)ccc3F)CC2)c1C 9.05%
CCc1nn2c(=O)cc(COC(=O)c3ccccc3NC(=O)COc3ccc(C)c(C)c3)nc2s1 -0.102%
CCOC(=O)c1cc(C(=O)Nc2ccccc2F)nn1C -3.1%
COc1ccc(C(=O)CC2(O)C(=O)N(Cc3cccc(C(F)(F)F)c3)c3ccccc32)cc1 (configuration not stated) 16.7%
CC(C)S(=O)(=O)C1=NSC2=NC(=O)/C(=C\c3ccc(OC(=O)c4ccco4)cc3)C(=N)N21 13.4%
Cc1ccccc1CN1CCC(n2nccc2NC(=O)CCOc2ccccc2)CC1 -2.14%
